PubChem BioAssay AID1224830 | NIAID, 2016
The whole screen tested about 18,000 reagents; below is a random part of them. In the full data, about 2,900 (16%) got an active call. 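Calls are made per well; low scores hint the gene aids the LPS response, high scores that it dampens it.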 Repeated entries: four replicate wells of each siRNA pool.

Purpose: 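Genes whose knock-down alters the TNF-alpha reporter response to LPS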 (primary screen)
Cell system: human THP-1 monocytic leukaemia cells, TNF dual-luciferase reporter clone, PMA-differentiated to macrophage-like cells
Reagents: siRNA pool against human genes, 50 nM
Time to read-out: LPS for 4 h, given about 3 days after siRNA transfection
Treatment: bacterial LPS (TLR4 ligand), 10 ng/ml
Read-out: 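Ratio of firefly to renilla light, scaled to the plate median and expressed as a robust z-score per replicate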
Scale: TNF reporter robust z-score: higher = stronger TNF reporter response to LPS
Hit rule: 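Each well counts as active if its z-score is over 2.8 or under -1.5; controls are left without a call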

PWP2 — TNF reporter robust z-score: 0.56; activity call: inactive
PWP2 — TNF reporter robust z-score: 1.43; activity call: inactive
PWP2 — TNF reporter robust z-score: 2.41; activity call: inactive
PWP2 — TNF reporter robust z-score: 1.52; activity call: inactive
INTS1 — TNF reporter robust z-score: -0.15; activity call: inactive
INTS1 — TNF reporter robust z-score: -0.44; activity call: inactive
INTS1 — TNF reporter robust z-score: -0.22; activity call: inactive
INTS1 — TNF reporter robust z-score: 0.24; activity call: inactive
GUSB — TNF reporter robust z-score: -0.91; activity call: inactive
GUSB — TNF reporter robust z-score: -1.05; activity call: inactive
GUSB — TNF reporter robust z-score: -1.11; activity call: inactive
GUSB — TNF reporter robust z-score: -0.93; activity call: inactive
DEFA1 — TNF reporter robust z-score: 1.03; activity call: inactive
DEFA1 — TNF reporter robust z-score: 0.08; activity call: inactive
DEFA1 — TNF reporter robust z-score: 0.85; activity call: inactive
DEFA1 — TNF reporter robust z-score: 0.57; activity call: inactive
FBXO25 — TNF reporter robust z-score: -1.09; activity call: inactive
FBXO25 — TNF reporter robust z-score: 2.02; activity call: inactive
FBXO25 — TNF reporter robust z-score: 1.59; activity call: inactive
FBXO25 — TNF reporter robust z-score: 1; activity call: inactive

In a second layout: results already given
{"gene symbol": "PWP2", "TNF reporter robust z-score": 1.43, "activity call": "inactive"}
{"gene symbol": "PWP2", "TNF reporter robust z-score": 2.41, "activity call": "inactive"}
{"gene symbol": "PWP2", "TNF reporter robust z-score": 1.52, "activity call": "inactive"}
